Test results as given in paper PMC7655571, “Acetylcholinesterase inhibition in electric eel and human donor blood: an in vitro approach to investigate interspecies differences and human variability in toxicodynamics” (Archives of Toxicology, 2020).
Where two headings read alike, the source gives them in different places. The structures given here were assigned with low confidence; some may be wrong.

Protein sequences, listed by entry. Tags and fused reporters are not part of them. Residues count along the entry.
UniProt O42275, 24-633 limits assumed: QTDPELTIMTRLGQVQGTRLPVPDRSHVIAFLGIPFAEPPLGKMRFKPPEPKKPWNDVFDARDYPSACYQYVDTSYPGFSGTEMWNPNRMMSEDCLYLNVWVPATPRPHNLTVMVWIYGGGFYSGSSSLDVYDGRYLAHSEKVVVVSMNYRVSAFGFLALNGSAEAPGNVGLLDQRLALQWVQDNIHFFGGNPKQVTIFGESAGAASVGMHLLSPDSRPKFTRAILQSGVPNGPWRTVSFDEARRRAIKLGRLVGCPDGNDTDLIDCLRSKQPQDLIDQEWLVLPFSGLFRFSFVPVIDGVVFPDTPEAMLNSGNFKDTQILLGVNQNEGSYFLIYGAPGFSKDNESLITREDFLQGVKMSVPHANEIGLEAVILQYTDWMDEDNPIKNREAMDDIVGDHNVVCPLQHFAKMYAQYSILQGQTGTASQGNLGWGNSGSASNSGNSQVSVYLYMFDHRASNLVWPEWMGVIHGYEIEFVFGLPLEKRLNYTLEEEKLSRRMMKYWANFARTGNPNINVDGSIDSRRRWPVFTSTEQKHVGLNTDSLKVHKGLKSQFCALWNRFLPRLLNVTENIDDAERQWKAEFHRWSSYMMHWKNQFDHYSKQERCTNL
UniProt P22303, 32-617 isoform 2 limits assumed: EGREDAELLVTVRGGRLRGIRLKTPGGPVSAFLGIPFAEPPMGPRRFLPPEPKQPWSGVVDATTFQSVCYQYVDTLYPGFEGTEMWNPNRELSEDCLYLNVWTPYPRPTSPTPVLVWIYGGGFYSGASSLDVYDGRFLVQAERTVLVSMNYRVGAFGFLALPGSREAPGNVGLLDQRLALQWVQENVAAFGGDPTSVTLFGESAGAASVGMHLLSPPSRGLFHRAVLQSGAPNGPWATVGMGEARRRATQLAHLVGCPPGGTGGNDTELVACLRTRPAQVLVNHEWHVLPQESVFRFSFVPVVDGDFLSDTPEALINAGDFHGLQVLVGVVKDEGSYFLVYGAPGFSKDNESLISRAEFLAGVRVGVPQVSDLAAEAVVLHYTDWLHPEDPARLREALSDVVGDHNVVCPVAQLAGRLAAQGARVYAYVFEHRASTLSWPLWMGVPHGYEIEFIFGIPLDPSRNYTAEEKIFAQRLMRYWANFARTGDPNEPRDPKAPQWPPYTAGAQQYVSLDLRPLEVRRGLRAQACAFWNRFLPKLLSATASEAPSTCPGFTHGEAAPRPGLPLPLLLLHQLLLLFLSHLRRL

Experiments:
[1] = biological target: Electrophorus electricus AChE (Electrophorus electricus, UniProt O42275); test: AChE inhibition, electric eel enzyme (Ellman method); assay type: biochemical
human blood AChE = human blood AChE (Homo sapiens, UniProt P22303); test: AChE inhibition in human donor whole blood (Ellman method); assay type: biochemical

`COP(=O)(OC)SCN1C(=O)c2ccccc2C1=O` was tested, and the “AChE inhibition (in words), electric eel” value ([1]; concentration–response curves) was “show inhibition of AChE”, the IC20 ([1]; read-out: IC20 Electric eel, 30 min exposure, room temperature) was 40 nM and the IC50 ([1]; read-out: IC50 Electric eel, 30 min exposure, room temperature, 3–4 independent experiments) was 70 nM. For the same molecule, the “AChE inhibition (in words), human blood” value (human blood AChE; concentration–response curves) was “show inhibition of AChE”, the “Coefficient of variation (CV) C1 Human” value (human blood AChE; human variability in AChE inhibition, concentration level C1 (Table S2)) was 5.8% and the “Coefficient of variation (CV) C2 Human” value (human blood AChE; human variability in AChE inhibition, concentration level C2 (Table S2)) was 5.9%. The “Coefficient of variation (CV) C3 Human” value (human blood AChE; human variability in AChE inhibition, concentration level C3 (Table S2)) was 5.6%, the “Coefficient of variation (CV) C4 Human” value (human blood AChE; human variability in AChE inhibition, concentration level C4 (Table S2)) was 7.7% and the “Coefficient of variation (CV) C5 Human” value (human blood AChE; human variability in AChE inhibition, concentration level C5 (Table S2)) was 6.1%. For the same molecule, the “Coefficient of variation (CV) C6 Human” value (human blood AChE; human variability in AChE inhibition, highest concentration C6 (Table S2)) was 7%, the “Human uncertainty factor (UF) UF97.5” value (human blood AChE; interindividual differences, concentration closest to the IC20, 95% CI in brackets) was 1.6 [1.4–1.8] and the IC20 (human blood AChE; read-out: IC20 Human, whole blood, average of 20 donors) was 670 nM. It also gave an IC20 (human blood AChE; read-out: IC20 Value, donor 1) of 300 nM, an IC20 (human blood AChE; read-out: IC20 Value, donor 2) of 200 nM and an IC20 (human blood AChE; read-out: IC20 Value, donor 3) of 300 nM. The IC20 (human blood AChE; read-out: IC20 Value, donor 4) was 200 nM, the IC20 (human blood AChE; read-out: IC20 Value, donor 5) was 400 nM and the IC20 (human blood AChE; read-out: IC20 Value, donor 6) was 700 nM. For the same molecule, the IC20 (human blood AChE; read-out: IC20 Value, donor 7) was 1000 nM, the IC20 (human blood AChE; read-out: IC20 Value, donor 8) was 400 nM and the IC20 (human blood AChE; read-out: IC20 Value, donor 9) was 600 nM. For the same molecule, the IC20 (human blood AChE; read-out: IC20 Value, donor 10) was 400 nM, the IC20 (human blood AChE; read-out: IC20 Value, donor 11) was 300 nM and the IC20 (human blood AChE; read-out: IC20 Value, donor 12) was 800 nM. For the same molecule, the IC20 (human blood AChE; read-out: IC20 Value, donor 13) was 1500 nM, the IC20 (human blood AChE; read-out: IC20 Value, donor 14) was 400 nM and the IC20 (human blood AChE; read-out: IC20 Value, donor 15) was 600 nM. For the same molecule, the IC20 (human blood AChE; read-out: IC20 Value, donor 16) was 800 nM, the IC20 (human blood AChE; read-out: IC20 Value, donor 17) was 900 nM and the IC20 (human blood AChE; read-out: IC20 Value, donor 18) was 1000 nM. It also gave an IC20 (human blood AChE; read-out: IC20 Value, donor 19) of 1100 nM, an IC20 (human blood AChE; read-out: IC20 Value, donor 20) of 1500 nM and an IC50 (human blood AChE; read-out: IC50 Human, whole blood, average of 20 donors) of 1800 nM. For the same molecule, the IC50 (human blood AChE; read-out: IC50 Value, donor 1) was 700 nM, the IC50 (human blood AChE; read-out: IC50 Value, donor 2) was 600 nM and the IC50 (human blood AChE; read-out: IC50 Value, donor 3) was 800 nM. It also gave an IC50 (human blood AChE; read-out: IC50 Value, donor 4) of 400 nM, an IC50 (human blood AChE; read-out: IC50 Value, donor 5) of 1000 nM and an IC50 (human blood AChE; read-out: IC50 Value, donor 6) of 1400 nM. For the same molecule, the IC50 (human blood AChE; read-out: IC50 Value, donor 7) was 3100 nM, the IC50 (human blood AChE; read-out: IC50 Value, donor 8) was 1300 nM and the IC50 (human blood AChE; read-out: IC50 Value, donor 9) was 1300 nM. It also gave an IC50 (human blood AChE; read-out: IC50 Value, donor 10) of 1000 nM, an IC50 (human blood AChE; read-out: IC50 Value, donor 11) of 1500 nM and an IC50 (human blood AChE; read-out: IC50 Value, donor 13) of 3700 nM. It also gave an IC50 (human blood AChE; read-out: IC50 Value, donor 14) of 1400 nM, an IC50 (human blood AChE; read-out: IC50 Value, donor 16) of 2300 nM and an IC50 (human blood AChE; read-out: IC50 Value, donor 17) of 2100 nM. It also gave an IC50 (human blood AChE; read-out: IC50 Value, donor 18) of 2300 nM, an IC50 (human blood AChE; read-out: IC50 Value, donor 19) of 4200 nM and an IC50 (human blood AChE; read-out: IC50 Value, donor 20) of 4000 nM.
